# Assay results published in PMC9799981.
# Biological target: HA-tagged p54^nrb
# Experiment: affinity purification with mass spectrometry; anti-HA immunoprecipitation from the nuclear fraction (RIPA) of HL-1 cells transduced with HA-p54^nrb, in normoxia or hypoxia (1% O2, 4 hr); 150 μg protein, protein G beads overnight at 4 °C, elution with HA peptides; label-free quantitative …
row,Binder,binding
1,"CPSF6 (protein, UniProt Q6NVF9 1-551) MADGVDHIDIYADVGEEFNQEAEYGGHDQIDLYDDVISPSANNGDAPEDRDYMDTLPPTVGDDVGKGAAPNVVYTYTGKRIALYIGNLTWWTTDEDLTEAVHSLGVNDILEIKFFENRANGQSKGFALVGVGSEASSKKLMDLLPKRELHGQSPVVTPCNKQFLSQFEMQSRKTTQSGQMSGEGKAGPPGGGSRAAFPQGGRGRGRFPGAVPGGDRFPGPAGPGGPPPPFPAGQTPPRPPLGPPGPPGPPGPPPPGQVLPPPLAGPPNRGDRPPPPVLFPGQPFGQPPLGPLPPGPPPPVPGYGPPPGPPPPQQGPPPPPGPFPPRPPGPLGPPLTLAPPPHLPGPPPGAPPPAPHVNPAFFPPPTNSGMPTSDSRGPPPTDPYGRPPPYDRGDYGPPGREMDTARTPLSEAEFEEIMNRNRAISSSAISRAVSDASAGDYGSAIETLVTAISLIKQSKVSADDRCKVLISSLQDCLHGIESKSYGSGSRRERSRERDHSRSREKSRRHKSRSRDRHDDYYRERSRERERHRDRDRDRDRERDREREYRHR",binds
2,"CPSF7 (protein, UniProt Q8BTV2 1-471) MSEGVDLIDIYADEEFNQDSEFNNTDQIDLYDDVLTAASQPSDDRSSSTEPPPPVRQEPAPKPNNKTPAILYTYSGLRSRRAAVYVGSFSWWTTDQQLIQVIRSIGVYDVVELKFAENRANGQSKGYAEVVVASENSVHKLLELLPGKVLNGEKVDVRPATRQNLSQFEAQARKRECVRVPRGGIPPRAHSRDSSDSADGRATPSENLVPSSARVDKPPSVLPYFNRPPSALPLMGLPPPPIPPPPPLSSSFGVPPPPPGIHYQHLMPPPPRLPPHLAVPPPGAIPPALHLNPAFFPPPNATVGPPPDTYMKASTPYNHHGSRDSGPPPSTVSEAEFEEIMKRNRAISSSAISKAVSGASAGDYSDAIETLLTAIAVIKQSRVANDERCRVLISSLKDCLHGIEAKSYSVGASGSSSRKRHRSRERSPSRSRESSRRHRDLLHNEDRHDDYFQERNREHERHRDRERDRHH",binds
3,"CIRBP (protein, UniProt P60824 1-172) MASDEGKLFVGGLSFDTNEQALEQVFSKYGQISEVVVVKDRETQRSRGFGFVTFENIDDAKDAMMAMNGKSVDGRQIRVDQAGKSSDNRSRGYRGGSAGGRGFFRGGRSRGRGFSRGGGDRGYGGGRFESRSGGYGGSRDYYASRSQGGSYGYRSSGGSYRDSYDSYATHNE",binds
4,"RBM3 (protein, UniProt O89086 1-153) MSSEEGKLFVGGLNFNTDEQALEDHFSSFGPISEVVVVKDRETQRSRGFGFITFTNPEHASDAMRAMNGESLDGRQIRVDHAGKSARGSRGGAFGGRGRSYSRGGGDQGYGSGRYDSRPGGYGYGYGRSRDYSGSQGGYDRYSGGNYRDNYDN",binds

# The next lines start with the values.
row,binding,Binder
1,binds,"hnRNPF (protein, UniProt Q9Z2X1 1-415) MMLGPEGGEGYVVKLRGLPWSCSIEDVQNFLSDCTIHDGVAGVHFIYTREGRQSGEAFVELESEDDVKLALKKDRESMGHRYIEVFKSHRTEMDWVLKHSGPNSADSANDGFVRLRGLPFGCTKEEIVQFFSGLEIVPNGITLPVDPEGKITGEAFVQFASQELAEKALGKHKERIGHRYIEVFKSSQEEVRSYSDPPLKFMSVQRPGPYDRPGTARRYIGIVKQAGLDRMRSGAYSAGYGGYEEYSGLSDGYGFTTDLFGRDLSYCLSGMYDHRYGDSEFTVQSTTGHCVHMRGLPYKATENDIYNFFSPLNPVRVHIEIGPDGRVTGEADVEFATHEEAVAAMSKDRANMQHRYIELFLNSTTGASNGAYSSQVMQGMGVSAAQATYSGLESQSVSGCYGAGYSGQNSMGGYD"
2,binds,"paraspeckle protein C1 (PSPC1) (protein, UniProt Q8R326 1-523) MMLRGNLKQVRIEKNPARLRALESAAGESEPVAAAAMALTLAGEQAPPPAPSEEHPDEELGFTIDIKSFLKPGEKTYTQRCRLFVGNLPTDITEEDFKRLFERYGEPSEVFINRDRGFGFIRLESRTLAEIAKAELDGTILKSRPLRIRFATHGAALTVKNLSPVVSNELLEQAFSQFGPVEKAVVVVDDRGRATGKGFVEFAAKPPARKALERCGDGAFLLTTTPRPVIVEPMEQFDDEDGLPEKLMQKTQQYHKEREQPPRFAQPGTFEFEYASRWKALDEMEKQQREQVDRNIREAKEKLEAEMEAARHEHQLMLMRQDLMRRQEELRRLEELRNQELQKRKQIQLRHEEEHRRREEEMIRHREQEELRRQQEGGFKPNYMENREQEMRMGDMGPRGAINMGDAFSPAPAGTQGPPPMMGMNMNNRGTIPGPPMGPGPAMGPEGAANMGTPMIPDNGAVHNDRFPQGPPSQMGSPMGNRTGSETPQAPMSGVGPVSGGPGGFGRGSQGGNFEGPNKRRRY"
3,binds,"hnRNPH1 (protein, UniProt O35737 1-449) MMLGAEGGEGFVVKVRGLPWSCSADEVQRFFSDCKIQNGAQGIRFIYTREGRPSGEAFVELESEDEVKLALKKDRETMGHRYVEVFKSNNVEMDWVLKHTGPNSPDTANDGFVRLRGLPFGCSKEEIVQFFSGLEIVPNGITLPVDFQGRSTGEAFVQFASQEIAEKALKKHKERIGHRYIEIFKSSRAEVRTHYDPPRKLMAMQRPGPYDRPGAGRGYNSIGRGAGFERMRRGAYGGGYGGYDDYNGYNDGYGFGSDRFGRDLNYCFSGMSDHRYGDGGSTFQSTTGHCVHMRGLPYRATENDIYNFFSPLNPVRVHIEIGPDGRVTGEADVEFATHEDAVAAMSKDKANMQHRYVELFLNSTAGASGGAYEHRYVELFLNSTAGASGGAYGSQMMGGMGLSNQSSYGGPASQQLSGGYGGGYGGQSSMSGYDQVLQENSSDFQSNIA"
4,binds,"UBAP2L (protein, UniProt Q80X50 1-1107) MMTSVGTNRARGNWEQPQNQNQTQHKQRPQATAEQIRLAQMISDHNDADFEEKVKQLIDITGKNQDECVIALHDCNGDVNRAINVLLEGNPDTHSWEMVGKKKGVSGQKDGGQTESNEEGKENRDRDRDYSRRRGGPPRRGRGASRGREFRGQENGLDGTKSGGPSGRGTDRGRRGRGRGRGSSGRRGGRFSAQGMGTFNPADYAEPANTDDNYGNSSGNTWNNTGHFEPDDGTRLDFIGVEGSNYPRKFETAPGAWRTATEEWGTEDWNEDLSETKIFTASNVSSVPLPAENVTITAGQRIDLAVLLGKTPSSMENDSSNLDPSQAPSLAQPLVFSNSKQNAISQPASGSTFSHHSMVSMLGKGFGDVGEAKGGSTTGSQFLEQFKTAQALAQLAAQHSQSGSTTTSSWDMGSTTQSPSLVQYDLKSANDSTVHSPFTKRQAFTPSSTMMEVFLQEKPPAVATSTAAPPPPSSPLPSKSTSAPQMSPGSSDNQSSSPQPAQQKLKQQKKKTSLTSKIPALAVEMPGSADISGLNLQFGALQFGSEPVLSDYESTPTTSASSSQAPSSLYTSTASESSSTVSSNQSQESGYQSGPIQSTTYTSQNNAQGPLYEQRSTQTRRYPSSISSSPQKDLTQAKNGFSSVQATQLQTTQSVEGATGSAVKSESPSTSSIPSLNETVPAASLLTTANQHSSSLSGLSHTEEIPNTTTTQHSSALSTQQNTLSSSTSSGRTSTSTLLHTSVESEANLHSSSSTFSTTSSTVSAPPPVVSVSSSLNSGSSLGLSLGSNSTVTASTRSSVATTSGKAPPNLPPGVPPLLPNPYIMAPGLLHAYPPQVYGYDDLQMLQTRFPLDYYSIPFPTPTTPLTGRDGSLASNPYSGDLTKFGRGDASSPAPATTLAQPQQNQTQTHHTTQQTFLNPALPPGYSYTSLPYYTGVPGLPSTFQYGPAVFPVAPTSSKQHGVNVSVNASATPFQQPSGYGSHGYNTGVSVTSSNTGVPDISGSVYSKTQQSFEKQGFHSGTPAASFNLPSALGSGGPINPATAAAYPPAPFMHILTPHQQPHSQILHHHLQQDGQTGSGQRSQTSSIPQKPQTNKSAYNSYSWGAN"
5,binds,"ZNF335 (protein, UniProt A2A5K6 1-1337) MEENEVESSSDAAPRPGQPEEPSESGLGVCTSEAVSADSSDAATVPGLTEADDSGVGQSSDGGNHSVEEVSESISTDPLPHGCLPDSSSVSRGPVAEMPGGPPALVHSSVLPDPSMLVSDCTASSSDLGSAIDKIIESTIGPDLIQSCITVTSGEEGGAETTQYLILQGPDDGAPMASSMSTSTLANSLAAIEALADGPTSTSACLEPPEEPQGDPSSVAQQPPAPVTEELDLQSLEAMMEVVVVQQFKCKMCQYRSSTKATLLRHMRERHFRPALAAAAAATGKRGRVRKWGTSTKTTEEDRPEEEEEDDDIVDAGAIDDLEEDSDYNPAEDEPRGRQLRLQRPTPSTPRPRRRPGRPRKLPRLETSDLHDGVGQPLVSSQSTQSPPELQDLEAPSSSGLRALGKVGRGLVESGVSQSDAENAAPSCQDEADAPPRRRGRPSRRFLGKKYRKYYYKSPKPLLRPYLCRICGSRFLSHEDLRFHVNSHEAGDPQLFRCLQCSYRSRRWSSLKEHMFNHVGSKPYKCDECSYTSVYRKDVIRHAAVHSQDRKKRPDPTPKLSSFPCPVCGRVYPMQKRLTQHMKTHSTEKPHMCDKCGKSFKKRYTFKMHLLTHIQAVANRRFKCEFCEFVCEDKKALLNHQLSHVSDKPFKCSFCPYRTFREDFLLSHVAVKHTGAKPFACEYCHFSTRHKKNLRLHVRCRHANSFEEWGRRHPEEPPSRRRPFFSLQQIEELKQQHSTAPGPPLSSPGPEAPQEPAPFQSPETPPLLCPDALGGTTIIYQQGAEESTAVATQTALDLLLNMSAQRELGATALQVAVVKSEGIEAELTSTGGQPSPEDTTPRVVTLHMAESGSSVAAESQLGPSDLQQIALPSGPFGGASYSVITAPPVEGRTSASGPPYREEPPGEAAQAVVVSDTLKEAGTHYIMAADGTQLHHIELTADGSISFPSPDTLAPGTKWPLLQCGGPPRDGSEVLSPTKTHHMGGSQGSSTPPPAASHTLGLVVPQSPPSAAASSTKKFSCKVCSEAFPSRAEMESHKRAHAGPAAFKCPDCPFSARQWPEVRAHMAQHSSLRPHQCNQCSFASKNKKDLRRHMLTHTNEKPFSCHVCGQRFNRNGHLKFHIQRLHSIDGRKTGTSTARAPAQTIILNSEEETLATLHTAFQSSHGVLGTERLQQALSQEHIIVAQEQTVTNQEEATYIQEITADGQTVQHLVTSDNQVQYIISQDGVQHLLPQEYVVVPDGHHIQVQEGQITHIQYEQGTPFLQESQIQYVPVSPSQQLVTQAQLEAAAHSAVTAVADAAMAQAQGLFGTEEAVPEQIHQLQHQGIEYDVITLSDD"
6,binds,"p54^nrb (endogenous mouse Nono) (protein, UniProt Q99K48 1-473) MQSNKAFNLEKQNHTPRKHHQHHHQQHHQQQQQQQQQQPPPPIPANGQQASSQNEGLTIDLKNFRKPGEKTFTQRSRLFVGNLPPDITEEEMRKLFEKYGKAGEVFIHKDKGFGFIRLETRTLAEIAKVELDNMPLRGKQLRVRFACHSASLTVRNLPQYVSNELLEEAFSVFGQVERAVVIVDDRGRPSGKGIVEFSGKPAARKALDRCSEGSFLLTTFPRPVTVEPMDQLDDEEGLPEKLVIKNQQFHKEREQPPRFAQPGSFEYEYAMRWKALIEMEKQQQDQVDRNIKEAREKLEMEMEAARHEHQVMLMRQDLMRRQEELRRMEELHNQEVQKRKQLELRQEEERRRREEEMRRQQEEMMRRQQEGFKGTFPDAREQEIRMGQMAMGGAMGINNRGAMPPAPVPPGTPAPPGPATMMPDGTLGLTPPTTERFGQAATMEGIGAIGGTPPAFNRPAPGAEFAPNKRRRY"

# These are yes or no findings as the source states them, for the method shown. In cells and extracts the contact can be indirect. These calls come from enrichment with a bait or labelling near it, and not all partners need be listed.
